{"source": "the supplement of paper PMC4604168 (melanoma cell lines)", "note": "The other results are listed elsewhere or left out. Repeats are few or missing, and single values can be far off.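 The apoptosis fraction was the count of cleaved-PARP antibody-stained nuclei relative to all DNA-stained nuclei, imaged in 1,536-well plates. Screening doses were set so most cells survived, and baseline and induced cleaved-PARP levels vary greatly across cell lines.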"}
{"tested_on": "RVH-421", "assay": "cleaved PARP positive nuclei fraction relative to DMSO control; melanoma cells; higher = more apoptosis", "settings": "library dose: low library concentration; 72 h", "units": {"cleaved PARP positive nuclei fraction": "%"}}
{"smiles": "CO[C@H]1C[C@@H]2CC[C@@H](C)[C@@](O)(O2)C(=O)C(=O)N2CCCC[C@H]2C(=O)O[C@H]([C@H](C)C[C@@H]2CC[C@@H](OCCO)[C@H](OC)C2)CC(=O)[C@H](C)/C=C(\\C)[C@@H](O)[C@@H](OC)C(=O)[C@H](C)C[C@H](C)/C=C/C=C/C=C/1C", "note": "[everolimus] + c1cc(-c2cnn3cc(-c4ccc(OCCN5CCCCC5)cc4)cnc23)ccn1 [Dorsomorphin] (first compound 0.02 µM, partner dose 0.4 µM)", "cleaved PARP positive nuclei fraction": 133}
{"smiles": "Cn1c(=O)n(-c2ccc(C(C)(C)C#N)cc2)c2c3cc(-c4cnc5ccccc5c4)ccc3ncc21", "note": "+ CO[C@H]1C[C@@H]2CC[C@@H](C)[C@@](O)(O2)C(=O)C(=O)N2CCCC[C@H]2C(=O)O[C@H]([C@H](C)C[C@@H]2CC[C@@H](OCCO)[C@H](OC)C2)CC(=O)[C@H](C)/C=C(\\C)[C@@H](O)[C@@H](OC)C(=O)[C@H](C)C[C@H](C)/C=C/C=C/C=C/1C [everolimus] (first compound 0.004 µM, partner dose 0.02 µM)", "cleaved PARP positive nuclei fraction": 122}
{"smiles": "C[C@@H](Oc1cc(-c2cnn(C3CCNCC3)c2)cnc1N)c1c(Cl)ccc(F)c1Cl", "note": "[Crizotinib] + CNC(=O)c1cc(Oc2ccc(NC(=O)Nc3ccc(Cl)c(C(F)(F)F)c3)cc2)ccn1 [sorafenib] (first compound 0.2 µM, partner dose 0.4 µM)", "cleaved PARP positive nuclei fraction": 205}
{"smiles": "CO[C@H]1C[C@@H]2CC[C@@H](C)[C@@](O)(O2)C(=O)C(=O)N2CCCC[C@H]2C(=O)O[C@H]([C@H](C)C[C@@H]2CC[C@@H](OCCO)[C@H](OC)C2)CC(=O)[C@H](C)/C=C(\\C)[C@@H](O)[C@@H](OC)C(=O)[C@H](C)C[C@H](C)/C=C/C=C/C=C/1C", "note": "[everolimus] + O=C(Nc1cccc(Cl)c1)Nc1ncc(CCNc2ncnc3ccsc23)s1 [SNS314] (first compound 0.02 µM, partner dose 0.0008 µM)", "cleaved PARP positive nuclei fraction": 231}
{"smiles": "CO[C@H]1C[C@@H]2CC[C@@H](C)[C@@](O)(O2)C(=O)C(=O)N2CCCC[C@H]2C(=O)O[C@H]([C@H](C)C[C@@H]2CC[C@@H](OCCO)[C@H](OC)C2)CC(=O)[C@H](C)/C=C(\\C)[C@@H](O)[C@@H](OC)C(=O)[C@H](C)C[C@H](C)/C=C/C=C/C=C/1C", "note": "[everolimus] + Oc1nc(-c2ccc(C(F)(F)F)cc2)nc2c1CSCC2 [XAV939] (first compound 0.02 µM, partner dose 2 µM)", "cleaved PARP positive nuclei fraction": 127}
{"smiles": "CO[C@H]1C[C@@H]2CC[C@@H](C)[C@@](O)(O2)C(=O)C(=O)N2CCCC[C@H]2C(=O)O[C@H]([C@H](C)C[C@@H]2CC[C@@H](OCCO)[C@H](OC)C2)CC(=O)[C@H](C)/C=C(\\C)[C@@H](O)[C@@H](OC)C(=O)[C@H](C)C[C@H](C)/C=C/C=C/C=C/1C", "note": "[everolimus] + Cc1nc(Nc2ncc(C(=O)Nc3c(C)cccc3Cl)s2)cc(N2CCN(CCO)CC2)n1 [dasatanib] (first compound 0.02 µM, partner dose 0.004 µM)", "cleaved PARP positive nuclei fraction": 310}
{"smiles": "CO[C@H]1C[C@@H]2CC[C@@H](C)[C@@](O)(O2)C(=O)C(=O)N2CCCC[C@H]2C(=O)O[C@H]([C@H](C)C[C@@H]2CC[C@@H](OCCO)[C@H](OC)C2)CC(=O)[C@H](C)/C=C(\\C)[C@@H](O)[C@@H](OC)C(=O)[C@H](C)C[C@H](C)/C=C/C=C/C=C/1C", "note": "[everolimus] + CC1(C)NC(=O)N(c2ccc([N+](=O)[O-])c(C(F)(F)F)c2)C1=O [nilutamide] (first compound 0.02 µM, partner dose 1 µM)", "cleaved PARP positive nuclei fraction": 62.9}
{"smiles": "CO[C@H]1C[C@@H]2CC[C@@H](C)[C@@](O)(O2)C(=O)C(=O)N2CCCC[C@H]2C(=O)O[C@H]([C@H](C)C[C@@H]2CC[C@@H](OCCO)[C@H](OC)C2)CC(=O)[C@H](C)/C=C(\\C)[C@@H](O)[C@@H](OC)C(=O)[C@H](C)C[C@H](C)/C=C/C=C/C=C/1C", "note": "[everolimus] + Nc1cccc2c1CN(C1CCC(=O)NC1=O)C2=O [lenalidomide] (first compound 0.02 µM, partner dose 1 µM)", "cleaved PARP positive nuclei fraction": 144}
{"smiles": "CO[C@H]1C[C@@H]2CC[C@@H](C)[C@@](O)(O2)C(=O)C(=O)N2CCCC[C@H]2C(=O)O[C@H]([C@H](C)C[C@@H]2CC[C@@H](OCCO)[C@H](OC)C2)CC(=O)[C@H](C)/C=C(\\C)[C@@H](O)[C@@H](OC)C(=O)[C@H](C)C[C@H](C)/C=C/C=C/C=C/1C", "note": "[everolimus] + Nc1nc(F)nc2c1ncn2[C@@H]1O[C@H](CO)[C@@H](O)[C@@H]1O [fludarabine] (first compound 0.02 µM, partner dose 0.2 µM)", "cleaved PARP positive nuclei fraction": 89.9}
